PMC7819943, “Rice protein-binding microarrays: a tool to detect cis-acting elements near promoter regions in rice”
The list shows a part of the results.

Protein sequences, listed by entry. Tags and fused reporters are not part of them.
UniProt Q0JBA9, entry or part of it: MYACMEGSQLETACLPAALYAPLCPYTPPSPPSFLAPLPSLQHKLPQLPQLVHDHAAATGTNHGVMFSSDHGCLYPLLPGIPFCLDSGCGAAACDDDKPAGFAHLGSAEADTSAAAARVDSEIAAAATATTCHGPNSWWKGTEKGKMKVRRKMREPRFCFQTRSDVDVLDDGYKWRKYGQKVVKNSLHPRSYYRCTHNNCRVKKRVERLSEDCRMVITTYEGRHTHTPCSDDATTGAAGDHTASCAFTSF

The sequences below were run against OsWRKY34 (Oryza sativa, UniProt Q0JBA9 1-250) (assay: protein-binding microarray (RPBM); PBS, 2% BSA, 51.3 ng/ul salmon testes DNA, 50 uM zinc acetate, 200 nM TF, 25 C, 1 h; high values mean tight binding). Settings: protein: recombinant; tags: N-terminal polyhistidine and DsRed monomer fusion (pET32a); label: CyDye5-dUTP incorporated in the synthesized complementary strand; 3' TTTTT single-stranded linker to array surface; dsDNA, one strand shown.
Outline: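 Transcription factors, each fused N-terminally to a polyhistidine tag and DsRed, were expressed in E. coli BL21-CodonPlus and purified on Ni–NTA. A custom Agilent array was made double-stranded by primer extension with Cy5-dUTP and blocked with 2% BSA. It was incubated with 200 nM protein in PBS, 2% BSA, salmon testes DNA and 50 µM zinc acetate at 25 °C for 1 h, then washed. The binding signal is per-feature fluorescence intensity (arbitrary units) read on an Axon 4000B scanner.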
For “GAGTTTATTTTTTACATGGTCGGTTCCTGTGAGTTCCTAACGGAGTCACCTAGTGCAG”, the binding signal was 9420 fluorescence intensity (a.u.). “AGCACCGGTACAGTTTGACCTTTTTTTTTTGCACTACACTCGGAGTCACCTAGTGCAG” was tested, and the binding signal was 11700 fluorescence intensity (a.u.). “AACTGGATATTCCCATTCAATACCACCACTCGTCGTCCCGCGGAGTCACCTAGTGCAG” was tested, and the binding signal was 10100 fluorescence intensity (a.u.). With “ACCACTTCTACATGTCTTCTTCTTGTCTCGATGGAGTGGACGGAGTCACCTAGTGCAG” the binding signal was 8580 fluorescence intensity (a.u.). “TTTCCTTCTGCTAATGTTTGTTTTGACTTGTCCATATCTTCGGAGTCACCTAGTGCAG” was tested, and the binding signal was 12400 fluorescence intensity (a.u.). With “CCCTGGTTTCCGTGTCCAACGTCTGACCATTCGTTTTATTCGGAGTCACCTAGTGCAG” the binding signal was 9300 fluorescence intensity (a.u.). “AACTCTTTATATTCTACTGATCCTATGTGGGTTCCAACAACGGAGTCACCTAGTGCAG” was tested, and the binding signal was 8240 fluorescence intensity (a.u.). “TACTTGTGTCCGCCTCGCCGCGAGCCCACGAACGCGACCACGGAGTCACCTAGTGCAG” was tested, and the binding signal was 8370 fluorescence intensity (a.u.). “CCAACAGGGCGGAACATGATTGCGTTTTTGAGGTTTTCTTCGGAGTCACCTAGTGCAG” was tested, and the binding signal was 8170 fluorescence intensity (a.u.). In the case of “CTACTCAGCCATTTATTGTTTACCATATGCCATTGATAACCGGAGTCACCTAGTGCAG”, the binding signal was 9020 fluorescence intensity (a.u.). With “TAGTCAAACGTTGAAAAAAAAAGTCAACGGCGTCACACATCGGAGTCACCTAGTGCAG” the binding signal was 20900 fluorescence intensity (a.u.). “TTACAGCGCCATATCCTATATATCGTACCTACGACCAAAACGGAGTCACCTAGTGCAG” was tested, and the binding signal was 8090 fluorescence intensity (a.u.). For “CATTTGCTGAGTTCTAATCATTCAGGCAGATGCCTCTTTCCGGAGTCACCTAGTGCAG”, the binding signal was 8580 fluorescence intensity (a.u.). “TTCTCATATTTCTATTATCGTTGCCCACCTAGTGTTTCTTCGGAGTCACCTAGTGCAG” was tested, and the binding signal was 8880 fluorescence intensity (a.u.). In the case of “TCGTGCCGGTTGGTTGGTGCTTTGGCCCCTGTCTCTCCTTCGGAGTCACCTAGTGCAG”, the binding signal was 10200 fluorescence intensity (a.u.). In the case of “ATCATCAACAGCTCAGTTCATCCGTGCCGTGTTAATTTAGCGGAGTCACCTAGTGCAG”, the binding signal was 9700 fluorescence intensity (a.u.). With “GCGAAATCCGGCCTGCACCGTTATACCTTACCTGGTCCCACGGAGTCACCTAGTGCAG” the binding signal was 8950 fluorescence intensity (a.u.). In the case of “GTTCTTCTTGGTTCTGGTTGGTTAGCGGAGAGCAGCAGTGCGGAGTCACCTAGTGCAG”, the binding signal was 9060 fluorescence intensity (a.u.). With “ATTTTCCTTGTTTTGATGTTTTCTGGTTGGGGAAGGGTTACGGAGTCACCTAGTGCAG” the binding signal was 24600 fluorescence intensity (a.u.). With “AACCCCACGTGGCAGCCTCTGTGTCTATGGGCCCCACCTCCGGAGTCACCTAGTGCAG” the binding signal was 8560 fluorescence intensity (a.u.). In the case of “CATTTTCTTGTGAATCGCTGACCGTCTAGACTCAAGCTTTCGGAGTCACCTAGTGCAG”, the binding signal was 9490 fluorescence intensity (a.u.). With “AACCTCCACACACCCGCTCATACTACAAGCTAGGTAATCACGGAGTCACCTAGTGCAG” the binding signal was 8040 fluorescence intensity (a.u.). For “CATATATCCAATTCATTAGACGGTTGTATCATATCTTCACCGGAGTCACCTAGTGCAG”, the binding signal was 10600 fluorescence intensity (a.u.). In the case of “TGCTCGCTCGTTTGATCCATCCTAGTTGCTGAGACGTTTCCGGAGTCACCTAGTGCAG”, the binding signal was 13200 fluorescence intensity (a.u.). In the case of “CGCGCGGATTTGCCGTTACCACCTTCTGCCTGCCTGCGCCCGGAGTCACCTAGTGCAG”, the binding signal was 10100 fluorescence intensity (a.u.). “TGGCGGATTGATCTGGAGGTGGGCTTGTTGGGGTTGCTGTCGGAGTCACCTAGTGCAG” was tested, and the binding signal was 18200 fluorescence intensity (a.u.). With “TGTTGCCATTCTCATCTACAAGTGCTGCAAGCTGCGCATGCGGAGTCACCTAGTGCAG” the binding signal was 8240 fluorescence intensity (a.u.). In the case of “CCACATCGCCCCGCCCTGCCCTTTAAATATCCTTTGGCCCCGGAGTCACCTAGTGCAG”, the binding signal was 9390 fluorescence intensity (a.u.). With “CGATAAGTGATAACTCCGCCATTTTCGCAGCCTCGCTCCACGGAGTCACCTAGTGCAG” the binding signal was 9280 fluorescence intensity (a.u.). With “GTAGTCCATTGTAAATCACTAAATTAGTGTGGTCATCGCACGGAGTCACCTAGTGCAG” the binding signal was 8950 fluorescence intensity (a.u.). For “ATTAATCATATGGTAATTACTTGCATCGTTTCTGTGCCACCGGAGTCACCTAGTGCAG”, the binding signal was 8350 fluorescence intensity (a.u.). In the case of “CAACAACATCATCATCGCTCACATCCGCATCTCCACACAACGGAGTCACCTAGTGCAG”, the binding signal was 13500 fluorescence intensity (a.u.). In the case of “GTTTCATATTTTACGCTTTGACTTTTGCAAAATCAATTTTCGGAGTCACCTAGTGCAG”, the binding signal was 13500 fluorescence intensity (a.u.). With “TGATTTGCGCGAGGGTTTGGTTTGGTTTGGTTTGAGTCGACGGAGTCACCTAGTGCAG” the binding signal was 19200 fluorescence intensity (a.u.). With “ATTTCTTCGTTATAATTTAATCTTACTTTTCAACTTAAAACGGAGTCACCTAGTGCAG” the binding signal was 8790 fluorescence intensity (a.u.). For “CTACCCACACCTCAACAGTTTTTCCTGTTCCACCCTTCTTCGGAGTCACCTAGTGCAG”, the binding signal was 10800 fluorescence intensity (a.u.). With “CTCGCTCCGCTTCCATCCATATTCCACCGCATCGCGCGCGCGGAGTCACCTAGTGCAG” the binding signal was 9710 fluorescence intensity (a.u.). “GCTGCTTCTTACTTCTGGTCAAACACCATCAATGCATTTTCGGAGTCACCTAGTGCAG” was tested, and the binding signal was 8740 fluorescence intensity (a.u.). With “TTCTCTTCGACTTTTCTCCTCCACAGCCGCCAAGCTGACGCGGAGTCACCTAGTGCAG” the binding signal was 9700 fluorescence intensity (a.u.). For “ACTTGAGACGATCGAACTGCTAATTGCAGCTCATAATTTTCGGAGTCACCTAGTGCAG”, the binding signal was 8150 fluorescence intensity (a.u.). For “TTGCTCGGGGCGATTGGGCCATGCGAGGTGCGGGATTTGACGGAGTCACCTAGTGCAG”, the binding signal was 8090 fluorescence intensity (a.u.). “TTTGTTTCTACTCTGTCTGTCTGATTGTTTGTGCTTCTGTCGGAGTCACCTAGTGCAG” was tested, and the binding signal was 13300 fluorescence intensity (a.u.). With “CCATTGTTGGCCCGTTGCTTCCTCTACTCTTTTTGTGGGACGGAGTCACCTAGTGCAG” the binding signal was 15400 fluorescence intensity (a.u.). “GAGAGTTGAGACATGGTAGCGGGCGGGTTTGTTAGCCATGCGGAGTCACCTAGTGCAG” was tested, and the binding signal was 9900 fluorescence intensity (a.u.). With “ATTATTTACCTGAATTGCCACCGCGTACCGCTTCGTTTCTCGGAGTCACCTAGTGCAG” the binding signal was 10300 fluorescence intensity (a.u.). With “CTATTAGGTTGGGCCTAAGGTGATCTATTTTTGCGTGGTTCGGAGTCACCTAGTGCAG” the binding signal was 9340 fluorescence intensity (a.u.). “AATGCTTGTCTGATCCGTTTTCTCCTACTCTTGTAATTAACGGAGTCACCTAGTGCAG” was tested, and the binding signal was 9360 fluorescence intensity (a.u.). In the case of “GTCCATCTATCCTACCTATCGCTTTATATATCCATGCATGCGGAGTCACCTAGTGCAG”, the binding signal was 9200 fluorescence intensity (a.u.). With “CATCCCCACTTCCAGCGCATCGATCCCCACCTCCGATGGACGGAGTCACCTAGTGCAG” the binding signal was 8270 fluorescence intensity (a.u.). With “GACAGACGCAATCGCATGCAAACGTATCGCCTTCAATTTTCGGAGTCACCTAGTGCAG” the binding signal was 8960 fluorescence intensity (a.u.). In the case of “TAGTGTATCATTCATTCGCCTTGTCATGCTATTCAAATGACGGAGTCACCTAGTGCAG”, the binding signal was 8580 fluorescence intensity (a.u.). For “GGTCTCAGGTTGTCACTTTTCTATCCAGATTTATCGTAGTCGGAGTCACCTAGTGCAG”, the binding signal was 8110 fluorescence intensity (a.u.). “GAAGGGGAAGGGAGGGGATGAGATAGTTGGGCTCGTACCTCGGAGTCACCTAGTGCAG” was tested, and the binding signal was 8260 fluorescence intensity (a.u.). With “ATGTGACTGAAAAGTTGTGTGTGTATGACAGGTTGATGTGCGGAGTCACCTAGTGCAG” the binding signal was 8030 fluorescence intensity (a.u.).
